# Reference: the supplement of paper PMC8728848
# This is one part of the list.
# B1: Nc3LysM-2 (protein)
# chain: AHVLQARQSVSCDFATAANTGDTCASFAAAWGITEAAFAKLNPGVSCPGNLIAGSEYCVIGTVSTGAPTTTKAATTSTTPPTTTTTTKATTLSTSTTSVSPTGPSPQMPSITSTCNKFYQVQSGDGCWSIEQAQGVSASDFMAWNKAVDAQCDNLWLGYYVCVGVKGGSSPPPTTTTKPASSSAPTPQMPNTVSNCKKFHKVVSGDGCWAIEQAAGISASDFAKWNPYVDAACDNLWLGYYVCIGV
# Assays:
# Assay in all cases: glycan array binding signal (z-score within array); higher = stronger binding
# Details in all cases: glycan notation: IUPAC condensed, linker removed
# [1] = biological target: Gal(b1-4)GlcNAc(b1-3)Gal(b1-4)GlcNAc(b1-3)Gal(b1-4)GlcNAc(b1-3)Gal(b1-4)GlcNAc(b1-3)Gal(b1-4)GlcNAc(b1-2)[Gal(b1-4)GlcNAc(b1-3)Gal(b1-4)GlcNAc(b1-3)Gal(b1-4)GlcNAc(b1-3)Gal(b1-4)GlcNAc(b1-3)Gal(b1-4)GlcNAc(b1-6)]Man(a1-6)[Gal(b1-4)GlcNAc(b1-3)Gal(b1-4)GlcNAc(b1-3)Gal(b1-4)GlcNAc(b1-3)Gal(b1-4)GlcNAc(b1-3)Gal(b1-4)GlcNAc(b1-2)Man(a1-3)]Man(b1-4)GlcNAc(b1-4)[Fuc(a1-6)]GlcNAc
# How it was run: (§1)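 Glycan array data were curated from 3228 arrays in the Consortium for Functional Glycomics database and kept only where the protein sequence was available. Glycan names were converted to IUPAC-condensed notation, and columns mapping to the same glycan were averaged. The binding signal is a within-array Z-score, averaged across arrays of the same protein sequence at different concentrations or buffers and across linkers. Negative Z-scores can be read as non-binding.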
# [2] = biological target: Gal(b1-4)GlcNAc(b1-3)Gal(b1-4)GlcNAc(b1-3)Gal(b1-4)GlcNAc(b1-3)Gal(b1-4)GlcNAc(b1-3)Gal(b1-4)GlcNAc(b1-3)Gal(b1-4)GlcNAc(b1-2)Man(a1-3)[Gal(b1-4)GlcNAc(b1-3)Gal(b1-4)GlcNAc(b1-3)Gal(b1-4)GlcNAc(b1-3)Gal(b1-4)GlcNAc(b1-3)Gal(b1-4)GlcNAc(b1-3)Gal(b1-4)GlcNAc(b1-2)Man(a1-6)]Man(b1-4)GlcNAc(b1-4)GlcNAc
# How it was run: as §1
# [3] = biological target: Gal(b1-4)GlcNAc(b1-3)Gal(b1-4)GlcNAc(b1-3)GalNAc
# How it was run: as §1
# [4] = biological target: Gal(b1-4)GlcNAc(b1-3)Gal(b1-4)GlcNAc(b1-3)[Gal(b1-4)GlcNAc(b1-3)Gal(b1-4)GlcNAc(b1-6)]GalNAc
# How it was run: as §1
# [5] = biological target: Gal(b1-4)GlcNAc(b1-3)Gal(b1-4)GlcNAc(b1-6)[Gal(b1-3)]GalNAc
# How it was run: as §1
# [6] = biological target: Gal(b1-4)GlcNAc(b1-3)Gal(b1-4)[Fuc(a1-3)]GlcNAc(b1-3)Gal(b1-4)[Fuc(a1-3)]GlcNAc
# How it was run: as §1
# [7] = biological target: Gal(b1-4)GlcNAc(b1-3)GalNAc
# How it was run: as §1
# [8] = biological target: Gal(b1-4)GlcNAc(b1-3)[Fuc(a1-3)GlcNAc(b1-6)]Gal(b1-4)Glc
# How it was run: as §1
# [9] = biological target: Gal(b1-4)GlcNAc(b1-3)[Gal(b1-4)GlcNAc(b1-6)]Gal(b1-4)GlcNAc
# How it was run: as §1
# [10] = biological target: Gal(b1-4)GlcNAc(b1-3)[GlcNAc(b1-6)]Gal(b1-4)GlcNAc
# How it was run: as §1
# [11] = biological target: Gal(b1-4)GlcNAc(b1-6)Gal(b1-4)GlcNAc
# How it was run: as §1
# [12] = biological target: Gal(b1-4)GlcNAc(b1-6)GalNAc
# How it was run: as §1
# [13] = biological target: Gal(b1-4)GlcNAc(b1-6)[Gal(b1-3)]GalNAc
# How it was run: as §1
# [14] = biological target: Gal(b1-4)GlcNAc(b1-6)[Gal(b1-4)GlcNAc(b1-3)]GalNAc
# How it was run: as §1
# Gal(b1-4)GlcNAc6P = biological target: Gal(b1-4)GlcNAc6P
# How it was run: as §1
# Gal(b1-6)Gal = biological target: Gal(b1-6)Gal
# How it was run: as §1
# Gal3S(b1-3)GalNAc = biological target: Gal3S(b1-3)GalNAc
# How it was run: as §1
# Gal3S(b1-3)GlcNAc = biological target: Gal3S(b1-3)GlcNAc
# How it was run: as §1
# [15] = biological target: Gal3S(b1-3)[Fuc(a1-4)]GlcNAc
# How it was run: as §1
binder,measurement,setting,value
B1,glycan array binding signal (z-score),[1],2.29
same,glycan array binding signal (z-score),[2],0.254
same,glycan array binding signal (z-score),[3],-1
same,glycan array binding signal (z-score),[4],0.109
same,glycan array binding signal (z-score),[5],-0.163
same,glycan array binding signal (z-score),[6],-0.357
same,glycan array binding signal (z-score),[7],-1.09
same,glycan array binding signal (z-score),[8],-0.719
same,glycan array binding signal (z-score),[9],0.733
same,glycan array binding signal (z-score),[10],-0.676
same,glycan array binding signal (z-score),[11],-0.253
same,glycan array binding signal (z-score),[12],-0.281
same,glycan array binding signal (z-score),[13],-0.655
same,glycan array binding signal (z-score),[14],0.159
same,glycan array binding signal (z-score),Gal(b1-4)GlcNAc6P,-0.517
same,glycan array binding signal (z-score),Gal(b1-6)Gal,0.212
same,glycan array binding signal (z-score),Gal3S(b1-3)GalNAc,0.389
same,glycan array binding signal (z-score),Gal3S(b1-3)GlcNAc,-0.735
same,glycan array binding signal (z-score),[15],0.035

# For reference, some entries already given:
binder,measurement,setting,value
B1,glycan array binding signal (z-score),[3],-1
same,glycan array binding signal (z-score),[4],0.109
